Source: US7132420B2, “Aspartic protease inhibitors” (The United States of America as represented by the …, priority 1999, dated 2006)
At least one compound was matched to its structure with a doubt left.

Assay: Rat P.O. pharmacokinetics and oral bioavailability
Format: in vivo, rats
Conditions: AUC p.o. relative to AUC iv
Description: This example illustrates the oral bioavailability of various compounds of the present invention. […] Drug concentrations were measured by centrifuging plasma samples, extracting the supernatants with tert-butyl methyl ether, and analyzing the extracts by HPLC. Oral bioavailability (% F) was calculated on the basis of the ratio of the amount of drug absorbed systemically from oral administration (AUC p.o.) relative to the amount of systemic drug obtained from intravenous administration (AUC iv).

Cc1cccc(C)c1OCC(=O)N[C@@H](CC(C)C)C[C@H](O)[C@H](Cc1ccccc1)NC(=O)[C@H](C(C)C)N1CCCNC1=O [(43)]
Rat P.O. % F (%): 42%
